The nature of the data set: Inhibition of linoleic acid peroxidation (AAPH). The settings on record: AAPH assay, versus pteridine 9. From the text:
Azo compounds that generate free radicals through spontaneous thermal decomposition are useful for in vitro studies of free radical production. The water-soluble AAPH has been extensively used as a clean and controllable source of thermally produced alkylperoxyl free radicals. […] Evidently, the presence of 6,7-dimethyl groups on the pteridine ring greatly enhances protection against lipid peroxidation; the nature of the alkyl group and ring size on the 2-substituent has some, but much less, effect. […] The role of lipophilicity (as assessed from calculated clogP values; Table 1) is not clear, but substituent bulk plays a significant role.
Inhibition of linoleic acid peroxidation
Production of conjugated diene hydroperoxide by oxidation of linoleic acid in an aqueous dispersion was monitored at 234 nm. 2,2’-Azobis(2-amidinopropane) dihydrochloride (AAPH) was used as a free radical initiator. This assay was used to follow oxidative changes and to determine the inhibition of the peroxidation of sodium linoleate by each tested compound. […] In the assay without antioxidant, lipid oxidation was measured in the presence of DMSO (10 μL). The rate of oxidation at 37 °C was monitored by recording the increase in absorption at 234 nm caused by conjugated diene hydroperoxide formation (Table 2).
IC50 determinations. […] The SEM is the calculated standard error in the IC50 value of the fitted line.

Turning to `CCN1CCNc2nc(N3CCN(C)CC3)nc(N3CCN(C)CC3)c21` [Compound 10a], the “Decrease of potency in protection of lipid peroxidation relative to compound 9” value is on record as 13 fold.

In the case of `CCN1CCN(CC)c2c1nc(N1CCN(C)CC1)nc2N1CCN(C)CC1` [Compound 10b], the “Decrease of potency in protection of lipid peroxidation relative to compound 9” value stood at 20 fold.

The record behind these values is PMC5462101 (Future medicinal chemistry, 2015).
